Results from article PMC3271320.
These are yes or no findings as the source states them, for the method shown. In cells and extracts the contact can be indirect. Some entries that bind do so weakly or less than the wild type.

Amino acid sequences for entries named in this document (tags omitted).
UniProt P19525: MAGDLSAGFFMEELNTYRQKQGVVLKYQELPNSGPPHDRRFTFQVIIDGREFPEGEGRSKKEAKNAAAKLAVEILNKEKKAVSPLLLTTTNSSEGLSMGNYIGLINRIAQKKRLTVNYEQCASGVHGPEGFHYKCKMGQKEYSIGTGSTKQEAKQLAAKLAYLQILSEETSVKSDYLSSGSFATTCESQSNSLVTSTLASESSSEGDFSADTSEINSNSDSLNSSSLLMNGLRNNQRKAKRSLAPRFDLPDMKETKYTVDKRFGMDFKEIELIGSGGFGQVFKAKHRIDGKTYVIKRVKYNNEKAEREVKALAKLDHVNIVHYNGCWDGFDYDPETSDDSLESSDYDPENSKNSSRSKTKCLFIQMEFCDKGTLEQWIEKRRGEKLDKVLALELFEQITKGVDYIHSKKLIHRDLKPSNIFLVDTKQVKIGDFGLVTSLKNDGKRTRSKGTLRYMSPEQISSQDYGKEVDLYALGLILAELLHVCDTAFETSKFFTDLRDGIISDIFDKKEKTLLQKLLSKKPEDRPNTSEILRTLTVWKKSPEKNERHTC
UniProt P40763: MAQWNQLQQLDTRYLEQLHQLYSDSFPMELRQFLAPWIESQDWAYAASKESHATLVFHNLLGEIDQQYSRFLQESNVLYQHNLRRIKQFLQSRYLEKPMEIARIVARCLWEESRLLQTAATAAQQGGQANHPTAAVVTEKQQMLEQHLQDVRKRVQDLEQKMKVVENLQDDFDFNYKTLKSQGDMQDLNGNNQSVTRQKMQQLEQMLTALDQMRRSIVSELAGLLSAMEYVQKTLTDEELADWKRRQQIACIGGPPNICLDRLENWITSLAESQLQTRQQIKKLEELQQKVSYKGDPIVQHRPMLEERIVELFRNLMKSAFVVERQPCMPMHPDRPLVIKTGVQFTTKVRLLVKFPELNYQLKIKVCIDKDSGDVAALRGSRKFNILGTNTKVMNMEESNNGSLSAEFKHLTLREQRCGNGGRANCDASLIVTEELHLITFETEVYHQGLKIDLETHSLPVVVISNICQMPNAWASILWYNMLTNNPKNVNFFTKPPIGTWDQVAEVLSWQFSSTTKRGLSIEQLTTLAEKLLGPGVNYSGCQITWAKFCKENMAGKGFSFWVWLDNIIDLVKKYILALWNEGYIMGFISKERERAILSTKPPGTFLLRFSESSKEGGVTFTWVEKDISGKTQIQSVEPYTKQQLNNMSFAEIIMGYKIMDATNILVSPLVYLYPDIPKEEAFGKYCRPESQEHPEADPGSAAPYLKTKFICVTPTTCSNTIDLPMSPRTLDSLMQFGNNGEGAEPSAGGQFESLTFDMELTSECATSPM

Molecular target: GST-PKR 1-551 aa (full-length PKR) (UniProt P19525)
Experiment: pull-down; 1 µg GST fusion on glutathione-sepharose beads incubated with 120 µg cell protein extract (Huh-7 or replicon cells, with or without IFN-alpha) in 200 µl HNGT (20 mmol/L HEPES pH 7.9, 150 mmol/L NaCl, 10% glycerol, 0.1% Triton X-100) overnight at 4 °C; blot with anti-STAT3 or anti-p-STAT3; only the target purified

Row | binding | Substance
1 | binds | signal transducer and activator of transcription 3 (STAT3) (from UniProt P40763 1-770)
2 | binds | phosphorylated-STAT3 (p-STAT3) (from UniProt P40763 1-770)
